Measured values as given in patent publication US6696495B2, “Treatment of disorders secondary to organic impairments” (Snowden Pharmaceuticals, LLC, priority 1998, dated 2004).

Tested on: Sexual Function and ADD
Assay: Case history 4, Sibutramine Patient No. 109
Assay type: in vivo, human
Conditions: before sibutramine

## COc1cc2c(cc1OC)C(=O)C(CC1CCN(Cc3ccccc3)CC1)C2 (stereo not shown) [donepezil]
  response to other medications: unsuccessful
